No constants are given. Whether binding was seen depends on the method and setting. Some entries that bind do so weakly or less than the wild type.

Amino acid sequences for entries named in this document (tags omitted). A change or cut given only in a name is not applied to a line headed by its entry.
UniProt P03023: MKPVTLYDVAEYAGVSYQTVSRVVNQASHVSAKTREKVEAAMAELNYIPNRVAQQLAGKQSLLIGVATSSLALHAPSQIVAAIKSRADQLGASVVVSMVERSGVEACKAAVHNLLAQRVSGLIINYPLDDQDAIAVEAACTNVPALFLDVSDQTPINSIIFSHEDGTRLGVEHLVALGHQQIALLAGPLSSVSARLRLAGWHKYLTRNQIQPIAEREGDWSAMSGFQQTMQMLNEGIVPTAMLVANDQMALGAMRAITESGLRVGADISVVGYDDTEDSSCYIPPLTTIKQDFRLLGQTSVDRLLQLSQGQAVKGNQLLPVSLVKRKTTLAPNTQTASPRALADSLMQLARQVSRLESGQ

The target in the test is OptoLacI^D2 (LacI^(W220F, 335-LOV2) with K84E) (E. coli | Avena sativa) (UniProt P03023). The test is described as follows: SEC; purified protein incubated 1 hour under blue light, then Superdex 200 Increase 10/300 GL under blue light illumination; 20 mM Hepes pH 7.5, 200 mM NaCl; both purified. (In gel filtration, larger molecules generally elute earlier.)

For the substance “OptoLacI^D2 (LacI^(W220F, 335-LOV2) with K84E) (from UniProt P03023 1-335; O49003 408-543; P03023 336-360)”, the binding entry was “binds”.

The values are drawn from paper PMC11260447, “OptoLacI: optogenetically engineered lactose operon repressor LacI responsive to light instead of IPTG” (Nucleic Acids Research, 2024).
